The data set deals with PC4 W89A (His-tagged) (human) (UniProt P53999). The data set can be described thus: EMSA. The settings on record: complexes less stable than wt (smeared); EMSA: 50 mM HEPES pH 8, 1 mM DTT, 100 mM NaCl, 0.01% BSA, 2% glycerol; 20 min on ice then 10 min at 25 C; native 8% PAGE, 0.5x TBE, 4 C; recombinant protein; protein details: N-terminal 6xHis; label: 5'-32P; single-stranded DNA.

The exact form of at least one protein or probe is not confirmed. The comparison behind a weaker result is the experiment's own reference, which may not be listed here.

In the case of “CCCTAACCCTAACCCTAACCCTAACCCTAA [telomeric C-rich (CCCTAA)5]”, the binding result is recorded as “binds more weakly”.
Next, “GGACTCTAGCGTGGATCCTTAAGCTAGAAT [unrelated oligonucleotide]”: “binds more weakly”.
For “TTACGGTTACGGTTACGGTTACGGTTACGG [mutant telomeric G-rich (TTACGG)5]”, the binding result is given as “binds more weakly”.
With “TTAGGGTTAGGGTTAGGGTTAGGGTTAGGG [telomeric G-rich (TTAGGG)5]”, the binding result is on record as “binds more weakly”.
